Laboratory results from PMC3169606, “Pub1p C-Terminal RRM Domain Interacts with Tif4631p through a Conserved Region Neighbouring the Pab1p Binding Site” (PLoS ONE, 2011).
Where a chain is given by its changes, count along the chain named. Results are given in words; binding and its absence hold for the method and conditions named. Some results given as binding are weak or reduced against the parent protein; the word gives no strength. Sequences can lack the tags named with a protein. Values belong to the binder of their own block, whether it stands above or below them.

Columns and labels:
Tif4631p (1–402) [1] = molecular target: T1, Tif4631p (1–402) (Saccharomyces cerevisiae, UniProt P39935 1-402); assay: cross-linking; glutaraldehyde by vapour diffusion, 16 h at 4°C; Pub1p proteins 10 µM, Tif4631p (1–402) 1 µM, Tif4631p (1–184) 4 µM; 25 mM potassium phosphate, 150 mM NaCl, 0.1 mM DTT, pH 8.0; 15% SDS-PAGE, silver stain; both purified
T1 construct: Cloned 'following equivalent methods' to the Pub1p constructs (same modified pET28 vector); Unlabelled or 15N-labelled according to the NMR experiment; source: E. coli BL21(DE3), purified (HisTrap, TEV digestion, second nickel column, anion exchange MonoQ); not shown: thioredoxin A, N-terminal, cleaved; His6, internal, cleaved
T1 sequence (looked up): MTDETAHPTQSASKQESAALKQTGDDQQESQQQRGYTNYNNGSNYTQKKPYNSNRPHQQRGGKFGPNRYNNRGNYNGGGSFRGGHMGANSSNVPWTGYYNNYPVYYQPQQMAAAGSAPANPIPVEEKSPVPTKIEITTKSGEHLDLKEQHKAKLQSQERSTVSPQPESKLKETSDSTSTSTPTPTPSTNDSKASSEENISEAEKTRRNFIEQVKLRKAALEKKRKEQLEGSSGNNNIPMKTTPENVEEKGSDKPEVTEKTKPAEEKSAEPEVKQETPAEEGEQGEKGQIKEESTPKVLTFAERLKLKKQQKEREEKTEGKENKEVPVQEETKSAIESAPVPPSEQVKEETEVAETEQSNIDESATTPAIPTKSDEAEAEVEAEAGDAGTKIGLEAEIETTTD

Tif4631p (1–184) [2] = molecular target: T2, Tif4631p (1–184) (Saccharomyces cerevisiae, UniProt P39935 1-184); assay: as above
T2 construct: Tif4631p (yeast eIF4G1), Saccharomyces cerevisiae, residues 1-184; Cloned 'following equivalent methods' to the Pub1p constructs; source: E. coli BL21(DE3), purified (HisTrap, TEV digestion, second nickel column, anion exchange MonoQ); not shown: thioredoxin A, N-terminal, cleaved; His6, internal, cleaved
T2 sequence (looked up): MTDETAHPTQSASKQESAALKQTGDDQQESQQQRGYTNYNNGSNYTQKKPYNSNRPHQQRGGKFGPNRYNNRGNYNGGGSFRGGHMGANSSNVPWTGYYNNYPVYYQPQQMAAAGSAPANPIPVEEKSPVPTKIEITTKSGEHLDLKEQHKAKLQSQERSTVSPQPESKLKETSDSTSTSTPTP

[3] = molecular target: T3, Tif4631p (1–82) (Saccharomyces cerevisiae) (UniProt P39935); assay: as above
T3 sequence: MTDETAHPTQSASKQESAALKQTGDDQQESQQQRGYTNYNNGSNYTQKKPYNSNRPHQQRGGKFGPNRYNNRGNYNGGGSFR

Tif4631p (1–184) [4] = molecular target: T2, Tif4631p (1–184); assay: condition: 10 µM Pub1p R3 double mutant, 4 µM Tif4631p (1–184); cross-linking; glutaraldehyde by vapour diffusion, 16 h at 4°C; Pub1p proteins 10 µM, Tif4631p (1–402) 1 µM, Tif4631p (1–184) 4 µM; 25 mM potassium phosphate, 150 mM NaCl, 0.1 mM DTT, pH 8.0; 15% SDS-PAGE, silver stain; both purified
Tif4631p (1–402) [5] = molecular target: T1, Tif4631p (1–402); assay: condition: 10 µM Pub1p R3 double mutant, 1 µM Tif4631p (1–402); cross-linking; glutaraldehyde by vapour diffusion, 16 h at 4°C; Pub1p proteins 10 µM, Tif4631p (1–402) 1 µM, Tif4631p (1–184) 4 µM; 25 mM potassium phosphate, 150 mM NaCl, 0.1 mM DTT, pH 8.0; 15% SDS-PAGE, silver stain; both purified
[6] = molecular target: T4, Pub1p R3 (RRM3 domain, residues 315–414) (Saccharomyces cerevisiae) (UniProt P32588); assay: NMR titration; 1H-15N HSQC of 15N-labelled Pub1p construct (100 µM) with unlabelled Tif4631p (1–402) added (1:1.9, 1:0.8 and 1:0.4 for Pub1p R3; 1:2 for Pub1p R12); 25 mM potassium phosphate pH 7.0, 25 mM NaCl, 0.1 mM DTT, 25°C; both purified
T4 sequence: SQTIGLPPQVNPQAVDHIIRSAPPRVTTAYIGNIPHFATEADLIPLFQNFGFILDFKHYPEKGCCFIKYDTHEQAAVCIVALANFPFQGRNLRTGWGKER

B1: Pub1p R12 (RRM1 and RRM2 domains, residues 32–242) (domain or fragment, UniProt P32588 32-242)
chain: ADPSSEQSVAVEGNSEQAEDNQGENDPSVVPANAITGGRETSDRVLYVGNLDKAITEDILKQYFQVGGPIANIKIMIDKNNKNVNYAFVEYHQSHDANIALQTLNGKQIENNIVKINWAFQSQQSSSDDTFNLFVGDLNVNVDDETLRNAFKDFPSYLSGHVMWDMQTGSSRGYGFVSFTSQDDAQNAMDSMQGQDLNGRPLRINWAAKRD
- binding (Tif4631p (1–402) [1]): no binding (tested: 10 µM Pub1p R12, 1 µM Tif4631p (1–402))
- binding (Tif4631p (1–184) [2]): no binding (tested: 10 µM Pub1p R12, 4 µM Tif4631p (1–184))
- binding [3]: no binding (tested: 10 µM Pub1p R12)

B2: Pub1p R3 Phe364Ala/Phe366Ala double mutant (domain or fragment, UniProt P32588 315-414)
chain: T4 sequence with F50A, F52A
- binding [3]: no binding (tested: 10 µM Pub1p R3 double mutant)
- binding (Tif4631p (1–184) [4]): no binding
- binding (Tif4631p (1–402) [5]): no binding

Other lines, results leading:

- binding [3]: no binding (tested: 10 µM Pub1p R3)
B3: Pub1p R3 (RRM3 domain, residues 315–414) (domain or fragment, Saccharomyces cerevisiae, UniProt P32588 315-414, looked up)
chain: T4 sequence
notes: also called Pub1p TRRM; Pub1p RRM3; source: E. coli BL21(DE3), purified (HisTrap, TEV digestion, second nickel column, cation exchange); not shown: thioredoxin A, N-terminal, cleaved; His6, internal, cleaved

- binding [6]: binds weakly
B4: Tif4631p (1–402) (domain or fragment, UniProt P39935 1-402)
chain: T1 sequence (looked up)
